Test results taken from paper PMC11193767.

Protein sequences, listed by entry. Tags and fused reporters are not part of them. Lines headed by an entry give the natural chain unless they say otherwise; changes in a name come on top. Chains listed by the source or under a name are the forms on record and can include a tag or linker.
UniProt Q8IWT6: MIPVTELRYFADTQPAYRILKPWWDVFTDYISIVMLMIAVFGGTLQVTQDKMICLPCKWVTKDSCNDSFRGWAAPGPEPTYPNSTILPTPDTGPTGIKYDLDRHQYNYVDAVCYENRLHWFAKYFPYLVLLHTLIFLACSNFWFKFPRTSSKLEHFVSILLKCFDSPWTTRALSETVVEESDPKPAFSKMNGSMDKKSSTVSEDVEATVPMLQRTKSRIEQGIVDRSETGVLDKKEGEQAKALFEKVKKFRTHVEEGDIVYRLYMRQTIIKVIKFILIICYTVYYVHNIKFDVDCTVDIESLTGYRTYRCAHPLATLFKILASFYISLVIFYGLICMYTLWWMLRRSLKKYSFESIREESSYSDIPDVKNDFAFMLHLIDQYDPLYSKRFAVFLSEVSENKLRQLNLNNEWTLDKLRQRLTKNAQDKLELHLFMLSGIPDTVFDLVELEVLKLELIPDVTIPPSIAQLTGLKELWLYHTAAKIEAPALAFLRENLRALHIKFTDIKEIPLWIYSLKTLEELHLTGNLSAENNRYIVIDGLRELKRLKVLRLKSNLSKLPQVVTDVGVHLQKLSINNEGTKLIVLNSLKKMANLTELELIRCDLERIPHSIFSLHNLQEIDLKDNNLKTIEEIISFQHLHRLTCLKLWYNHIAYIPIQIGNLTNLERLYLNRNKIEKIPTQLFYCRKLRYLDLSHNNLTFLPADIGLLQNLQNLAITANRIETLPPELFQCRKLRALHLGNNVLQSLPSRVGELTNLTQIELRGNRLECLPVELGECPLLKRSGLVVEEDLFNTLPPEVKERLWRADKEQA
Rapamycin-insensitive companion of mTOR (Q6R327-3, form named): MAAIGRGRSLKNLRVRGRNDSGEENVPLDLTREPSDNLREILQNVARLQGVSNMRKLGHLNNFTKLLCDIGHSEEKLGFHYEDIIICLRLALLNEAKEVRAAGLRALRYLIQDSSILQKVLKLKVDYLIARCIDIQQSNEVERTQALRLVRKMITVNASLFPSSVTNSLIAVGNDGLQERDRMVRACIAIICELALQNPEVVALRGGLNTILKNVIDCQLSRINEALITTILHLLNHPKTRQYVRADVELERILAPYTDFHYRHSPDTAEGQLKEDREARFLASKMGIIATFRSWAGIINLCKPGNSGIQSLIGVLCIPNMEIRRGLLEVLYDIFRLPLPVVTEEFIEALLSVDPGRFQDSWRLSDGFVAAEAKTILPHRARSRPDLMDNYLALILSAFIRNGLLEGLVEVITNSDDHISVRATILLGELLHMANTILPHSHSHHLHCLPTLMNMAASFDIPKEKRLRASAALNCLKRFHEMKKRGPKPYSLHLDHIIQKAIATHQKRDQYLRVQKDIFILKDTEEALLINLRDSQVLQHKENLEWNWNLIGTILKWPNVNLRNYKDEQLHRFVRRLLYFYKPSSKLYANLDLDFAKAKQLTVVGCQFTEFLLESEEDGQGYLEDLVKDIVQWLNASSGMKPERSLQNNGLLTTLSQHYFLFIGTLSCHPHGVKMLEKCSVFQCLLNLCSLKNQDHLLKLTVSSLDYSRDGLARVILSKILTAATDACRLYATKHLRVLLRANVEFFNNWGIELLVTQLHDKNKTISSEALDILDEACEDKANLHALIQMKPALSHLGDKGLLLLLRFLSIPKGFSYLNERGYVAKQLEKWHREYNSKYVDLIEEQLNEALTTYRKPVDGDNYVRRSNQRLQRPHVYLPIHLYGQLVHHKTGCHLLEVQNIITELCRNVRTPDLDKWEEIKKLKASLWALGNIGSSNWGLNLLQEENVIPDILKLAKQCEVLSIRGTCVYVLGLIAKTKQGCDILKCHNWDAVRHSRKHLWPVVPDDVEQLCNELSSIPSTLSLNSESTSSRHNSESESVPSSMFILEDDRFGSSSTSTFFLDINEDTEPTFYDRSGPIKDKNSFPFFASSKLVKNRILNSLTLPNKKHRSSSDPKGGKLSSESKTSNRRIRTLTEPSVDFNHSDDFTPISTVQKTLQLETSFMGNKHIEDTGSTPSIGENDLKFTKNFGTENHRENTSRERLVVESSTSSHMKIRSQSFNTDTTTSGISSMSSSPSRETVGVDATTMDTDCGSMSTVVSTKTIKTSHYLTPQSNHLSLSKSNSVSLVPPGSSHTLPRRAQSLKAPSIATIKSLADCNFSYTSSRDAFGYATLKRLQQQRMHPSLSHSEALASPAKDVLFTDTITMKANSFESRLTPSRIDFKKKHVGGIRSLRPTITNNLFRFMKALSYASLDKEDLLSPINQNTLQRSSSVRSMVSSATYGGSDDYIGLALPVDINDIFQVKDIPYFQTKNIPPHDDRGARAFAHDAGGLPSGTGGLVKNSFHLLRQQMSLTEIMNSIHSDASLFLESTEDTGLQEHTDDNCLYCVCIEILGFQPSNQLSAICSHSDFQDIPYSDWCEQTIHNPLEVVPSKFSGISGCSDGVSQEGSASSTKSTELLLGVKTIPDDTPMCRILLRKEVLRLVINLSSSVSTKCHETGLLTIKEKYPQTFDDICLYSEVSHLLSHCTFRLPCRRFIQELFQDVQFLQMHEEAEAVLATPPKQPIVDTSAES
UniProt Q9H792: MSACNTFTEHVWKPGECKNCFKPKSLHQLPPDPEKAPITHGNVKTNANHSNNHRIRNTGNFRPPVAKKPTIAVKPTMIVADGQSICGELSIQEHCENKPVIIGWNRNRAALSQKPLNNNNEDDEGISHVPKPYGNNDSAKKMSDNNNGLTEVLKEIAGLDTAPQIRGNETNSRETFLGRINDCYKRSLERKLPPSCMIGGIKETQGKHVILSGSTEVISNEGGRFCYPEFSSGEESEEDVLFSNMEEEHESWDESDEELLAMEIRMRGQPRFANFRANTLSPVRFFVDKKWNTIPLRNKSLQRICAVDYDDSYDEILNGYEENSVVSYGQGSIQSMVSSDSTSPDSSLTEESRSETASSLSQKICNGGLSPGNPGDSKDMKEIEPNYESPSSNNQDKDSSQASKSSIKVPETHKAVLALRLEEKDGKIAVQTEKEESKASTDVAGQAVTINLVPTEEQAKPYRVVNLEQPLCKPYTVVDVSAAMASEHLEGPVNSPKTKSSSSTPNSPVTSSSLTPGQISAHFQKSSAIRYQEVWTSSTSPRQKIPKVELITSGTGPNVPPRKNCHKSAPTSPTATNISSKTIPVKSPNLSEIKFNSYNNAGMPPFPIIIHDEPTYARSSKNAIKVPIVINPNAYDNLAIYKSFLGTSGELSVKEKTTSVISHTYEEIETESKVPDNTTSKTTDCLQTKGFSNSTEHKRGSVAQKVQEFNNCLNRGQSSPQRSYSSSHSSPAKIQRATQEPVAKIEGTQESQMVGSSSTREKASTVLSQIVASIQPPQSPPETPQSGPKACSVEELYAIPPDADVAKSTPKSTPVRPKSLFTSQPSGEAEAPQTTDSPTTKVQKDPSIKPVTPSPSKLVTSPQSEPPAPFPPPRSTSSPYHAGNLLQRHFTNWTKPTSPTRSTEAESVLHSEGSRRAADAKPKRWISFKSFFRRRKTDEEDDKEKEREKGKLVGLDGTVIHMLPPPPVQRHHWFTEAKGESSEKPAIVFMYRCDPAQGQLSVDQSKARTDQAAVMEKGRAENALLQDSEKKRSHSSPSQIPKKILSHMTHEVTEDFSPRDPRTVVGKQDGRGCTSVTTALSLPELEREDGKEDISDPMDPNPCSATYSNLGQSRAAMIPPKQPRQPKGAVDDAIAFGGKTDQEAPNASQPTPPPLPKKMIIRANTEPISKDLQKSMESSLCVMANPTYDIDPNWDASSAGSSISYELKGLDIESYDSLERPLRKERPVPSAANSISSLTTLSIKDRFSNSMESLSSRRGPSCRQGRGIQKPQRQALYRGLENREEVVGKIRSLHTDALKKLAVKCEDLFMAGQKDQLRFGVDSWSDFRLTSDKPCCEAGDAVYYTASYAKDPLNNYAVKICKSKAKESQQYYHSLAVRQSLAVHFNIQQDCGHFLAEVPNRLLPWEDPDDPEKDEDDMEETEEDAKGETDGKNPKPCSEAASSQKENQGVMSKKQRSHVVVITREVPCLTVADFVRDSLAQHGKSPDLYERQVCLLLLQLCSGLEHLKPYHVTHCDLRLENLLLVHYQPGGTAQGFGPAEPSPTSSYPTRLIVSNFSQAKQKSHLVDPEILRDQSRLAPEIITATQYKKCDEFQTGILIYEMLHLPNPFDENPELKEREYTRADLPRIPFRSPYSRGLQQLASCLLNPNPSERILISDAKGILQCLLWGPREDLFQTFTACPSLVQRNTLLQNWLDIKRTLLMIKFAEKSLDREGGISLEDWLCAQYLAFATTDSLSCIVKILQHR
Fatty aldehyde dehydrogenase (P51648-2, form named): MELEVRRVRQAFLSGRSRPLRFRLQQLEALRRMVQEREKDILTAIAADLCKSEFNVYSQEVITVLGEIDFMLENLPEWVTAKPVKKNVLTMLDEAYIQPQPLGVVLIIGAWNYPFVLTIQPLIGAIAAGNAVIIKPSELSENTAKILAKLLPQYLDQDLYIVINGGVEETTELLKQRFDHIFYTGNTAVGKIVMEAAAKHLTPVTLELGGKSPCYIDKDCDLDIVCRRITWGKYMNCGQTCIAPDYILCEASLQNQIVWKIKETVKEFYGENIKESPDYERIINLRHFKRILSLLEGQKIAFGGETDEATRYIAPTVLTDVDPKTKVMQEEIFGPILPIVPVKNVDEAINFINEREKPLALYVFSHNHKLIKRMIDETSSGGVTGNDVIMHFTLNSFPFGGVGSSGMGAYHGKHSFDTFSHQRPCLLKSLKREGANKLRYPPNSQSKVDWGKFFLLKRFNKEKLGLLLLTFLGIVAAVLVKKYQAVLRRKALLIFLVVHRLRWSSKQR
Leucine-rich repeat-containing protein 7 (Q96NW7, form named): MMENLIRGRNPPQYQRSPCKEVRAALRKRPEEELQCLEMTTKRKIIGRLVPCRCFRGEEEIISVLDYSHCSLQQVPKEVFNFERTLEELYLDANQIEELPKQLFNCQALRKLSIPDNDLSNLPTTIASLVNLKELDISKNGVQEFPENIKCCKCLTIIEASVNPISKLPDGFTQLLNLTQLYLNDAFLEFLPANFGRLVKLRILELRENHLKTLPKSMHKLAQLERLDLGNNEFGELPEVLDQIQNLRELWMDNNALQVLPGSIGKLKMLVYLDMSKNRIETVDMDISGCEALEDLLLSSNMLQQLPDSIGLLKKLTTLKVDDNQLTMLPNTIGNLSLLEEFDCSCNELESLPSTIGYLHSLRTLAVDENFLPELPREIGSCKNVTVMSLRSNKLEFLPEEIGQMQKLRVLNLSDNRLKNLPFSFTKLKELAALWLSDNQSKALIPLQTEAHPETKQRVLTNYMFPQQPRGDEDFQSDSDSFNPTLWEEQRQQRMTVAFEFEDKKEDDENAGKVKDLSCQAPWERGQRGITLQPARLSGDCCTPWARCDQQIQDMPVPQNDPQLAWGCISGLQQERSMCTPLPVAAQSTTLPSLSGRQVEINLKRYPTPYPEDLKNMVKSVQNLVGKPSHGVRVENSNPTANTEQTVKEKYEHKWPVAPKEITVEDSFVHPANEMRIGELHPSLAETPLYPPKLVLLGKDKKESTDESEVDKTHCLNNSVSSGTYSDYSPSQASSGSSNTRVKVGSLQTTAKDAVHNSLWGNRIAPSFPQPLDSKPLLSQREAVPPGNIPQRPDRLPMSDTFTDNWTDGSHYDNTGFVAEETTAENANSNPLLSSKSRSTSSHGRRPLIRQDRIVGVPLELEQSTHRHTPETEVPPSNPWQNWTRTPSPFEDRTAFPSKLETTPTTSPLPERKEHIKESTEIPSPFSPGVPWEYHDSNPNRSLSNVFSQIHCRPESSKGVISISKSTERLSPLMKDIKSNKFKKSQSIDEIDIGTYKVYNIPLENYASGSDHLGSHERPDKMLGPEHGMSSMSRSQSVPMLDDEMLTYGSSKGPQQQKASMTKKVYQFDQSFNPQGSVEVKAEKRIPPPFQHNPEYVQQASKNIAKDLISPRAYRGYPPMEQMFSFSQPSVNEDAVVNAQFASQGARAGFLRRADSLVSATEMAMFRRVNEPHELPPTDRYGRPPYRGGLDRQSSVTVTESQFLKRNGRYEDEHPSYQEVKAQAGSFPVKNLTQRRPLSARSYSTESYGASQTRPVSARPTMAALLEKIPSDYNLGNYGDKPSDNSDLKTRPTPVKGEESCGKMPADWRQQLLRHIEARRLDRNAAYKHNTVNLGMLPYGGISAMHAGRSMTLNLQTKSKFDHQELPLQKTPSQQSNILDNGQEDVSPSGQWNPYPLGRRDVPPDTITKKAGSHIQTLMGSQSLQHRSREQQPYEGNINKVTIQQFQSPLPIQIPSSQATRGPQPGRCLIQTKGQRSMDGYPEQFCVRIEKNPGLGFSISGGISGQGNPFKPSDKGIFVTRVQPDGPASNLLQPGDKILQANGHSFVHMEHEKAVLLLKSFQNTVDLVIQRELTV

Target: LRRC8A-BirA*-HA fusion protein (human) (UniProt Q8IWT6)
Assay: proximity labelling; BioID: HEK293 cells stably expressing LRRC8A-BirA*-HA (two clones), 50 uM biotin 24 h, RIPA lysis, streptavidin bead pull-down of biotinylated proteins, TMT labelling and LC-MS/MS; hits: FDR <= 0.05 and fold change >= 2 against the no-biotin control

**Q.** With Afadin (from UniProt P55196-3 1-1743) as the substance, how does the binding read?
**A.** Its binding is “binds”.

**Q.** Which binding does the source give for “Vesicle-associated membrane protein-associated protein B/C (from UniProt O95292-1 1-243)” here?
**A.** Its binding is “binds”.

**Q.** “Transforming acidic coiled-coil-containing protein 1 (from UniProt O75410-1 1-805)” was tested. Which binding did it give?
**A.** Its binding is “binds”.

**Q.** Which binding does the source give for “Rapamycin-insensitive companion of mTOR (from UniProt Q6R327-3 1-1732)” here?
**A.** Its binding is “binds”.

**Q.** Which binding does the source give for “Cation-independent mannose-6-phosphate receptor (from UniProt P11717 41-2491)” here?
**A.** The binding was “binds”.

**Q.** How did the binding turn out when “4F2 cell-surface antigen heavy chain (from UniProt P08195-5 1-631)” was run?
**A.** Its binding is “binds”.

**Q.** Which binding does the source give for “Protein 4.1 (from UniProt P11171-1 1-864)” here?
**A.** Its binding is “binds”.

**Q.** For “Spectrin alpha chain, non-erythrocytic 1 (from UniProt Q13813-2 1-2477)”, which binding is on record?
**A.** The binding was “binds”.

**Q.** “Fermitin family homolog 2 (from UniProt Q96AC1-3 1-687)” was tested. Which binding did it give?
**A.** Its binding is “binds”.

**Q.** Which binding does the source give for “Serine/threonine-protein kinase VRK2 (from UniProt Q86Y07-1 1-508)” here?
**A.** Its binding is “binds”.

**Q.** With “Liprin-beta-1 (from UniProt Q86W92-1 1-1011)” as the substance, how does the binding read?
**A.** Its binding is “binds”.

**Q.** With “Delta14-sterol reductase (lamin-B receptor) (from UniProt Q14739 1-615)” as the substance, how does the binding read?
**A.** The binding was “binds”.

**Q.** Which binding does the source give for “Beta-adducin (from UniProt P35612-1 1-726)” here?
**A.** The binding was “binds”.

**Q.** With “Microtubule-actin cross-linking factor 1, isoforms 1/2/3/5 (from UniProt Q9UPN3-2 1-5430)” as the substance, how does the binding read?
**A.** The binding was “binds”.

**Q.** With “Pseudopodium-enriched atypical kinase 1 (from UniProt Q9H792 1-1746)” as the substance, how does the binding read?
**A.** Its binding is “binds”.

**Q.** For “F-BAR domain only protein 2 (from UniProt Q0JRZ9-1 1-810)”, which binding is on record?
**A.** The binding was “binds”.

**Q.** “EZR, a member of the ERM protein family (from UniProt P15311 1-586)” was tested. Which binding did it give?
**A.** Its binding is “binds”.

**Q.** With “Palmitoyltransferase ZDHHC5 (from UniProt Q9C0B5-1 1-715)” as the substance, how does the binding read?
**A.** The binding was “binds”.

**Q.** Which binding does the source give for “Desmoglein-2 (from UniProt Q14126 50-1118)” here?
**A.** Its binding is “binds”.

**Q.** With “Serine/threonine-protein kinase N2 (from UniProt Q16513-1 1-984)” as the substance, how does the binding read?
**A.** Its binding is “binds”.

**Q.** How did the binding turn out when “Serine/threonine-protein kinase PAK 4 (from UniProt O96013-1 1-591)” was run?
**A.** Its binding is “binds”.

**Q.** With “Torsin-1A-interacting protein 1 (from UniProt Q5JTV8-3 1-584)” as the substance, how does the binding read?
**A.** Its binding is “binds”.

**Q.** With “Tyrosine-protein phosphatase non-receptor type 13 (from UniProt Q12923-4 1-2490)” as the substance, how does the binding read?
**A.** Its binding is “binds”.

**Q.** Which binding does the source give for “Fatty aldehyde dehydrogenase (from UniProt P51648-2 1-508)” here?
**A.** The binding was “binds”.

**Q.** “RuvB-like 1 (from UniProt Q9Y265-1 1-456)” was tested. Which binding did it give?
**A.** Its binding is “binds”.

**Q.** With “Zinc finger FYVE domain-containing protein 16 (from UniProt Q7Z3T8-1 1-1539)” as the substance, how does the binding read?
**A.** Its binding is “binds”.

**Q.** How did the binding turn out when “Tyrosine-protein kinase transmembrane receptor ROR2 (from UniProt Q01974 34-943)” was run?
**A.** The binding was “binds”.

**Q.** Which binding does the source give for “Lipopolysaccharide-responsive and beige-like anchor protein (from UniProt P50851-1 1-2863)” here?
**A.** Its binding is “binds”.

**Q.** Which binding does the source give for “Stromal interaction molecule 1 (from UniProt Q13586 23-685)” here?
**A.** The binding was “binds”.

**Q.** Which binding does the source give for “Protein NDRG1 (from UniProt Q92597-1 1-394)” here?
**A.** Its binding is “binds”.

**Q.** How did the binding turn out when “Kinase D-interacting substrate of 220 kDa (from UniProt Q9ULH0-1 1-1771)” was run?
**A.** Its binding is “binds”.

**Q.** For “Golgin subfamily B member 1 (from UniProt Q14789-2 1-3269)”, which binding is on record?
**A.** The binding was “binds”.

**Q.** “Plasma membrane calcium-transporting ATPase 1 (from UniProt P20020-3 1-1220)” was tested. Which binding did it give?
**A.** Its binding is “binds”.

**Q.** For “Synaptosomal-associated protein 23 (from UniProt O00161-1 1-211)”, which binding is on record?
**A.** The binding was “binds”.

**Q.** How did the binding turn out when “Unconventional myosin-VI (from UniProt Q9UM54-1 1-1285)” was run?
**A.** Its binding is “binds”.

**Q.** With “Zinc finger CCCH-type antiviral protein 1 (from UniProt Q7Z2W4-1 1-902)” as the substance, how does the binding read?
**A.** The binding was “binds”.

**Q.** With “Golgi resident protein GCP60 (from UniProt Q9H3P7 1-528)” as the substance, how does the binding read?
**A.** Its binding is “binds”.

**Q.** Which binding does the source give for “Neuroblast differentiation-associated protein AHNAK (from UniProt Q09666-1 1-5890)” here?
**A.** The binding was “binds”.

**Q.** With Utrophin (from UniProt P46939-1 1-3433) as the substance, how does the binding read?
**A.** The binding was “binds”.

**Q.** With “Gap junction alpha-1 protein (from UniProt P17302 1-382)” as the substance, how does the binding read?
**A.** The binding was “binds”.

**Q.** Which binding does the source give for “Protein scribble homolog (from UniProt Q14160-3 1-1655)” here?
**A.** The binding was “binds”.

**Q.** With Girdin (from UniProt Q3V6T2-3 1-1870) as the substance, how does the binding read?
**A.** The binding was “binds”.

**Q.** For “Band 4.1-like protein 2 (from UniProt O43491-1 1-1005)”, which binding is on record?
**A.** The binding was “binds”.

**Q.** Which binding does the source give for “Sorting nexin-1 (from UniProt Q13596-3 1-557)” here?
**A.** The binding was “binds”.

**Q.** For “Rho GTPase-activating protein 21 (from UniProt Q5T5U3-1 1-1958)”, which binding is on record?
**A.** The binding was “binds”.

**Q.** With Nectin-2 (from UniProt Q92692-1 32-538) as the substance, how does the binding read?
**A.** The binding was “binds”.

**Q.** “Band 4.1-like protein 3 (from UniProt Q9Y2J2-1 1-1087)” was tested. Which binding did it give?
**A.** The binding was “binds”.

**Q.** For “Multidrug resistance-associated protein 5 (from UniProt O15440-1 1-1437)”, which binding is on record?
**A.** Its binding is “binds”.

**Q.** With “Leucine-rich repeat-containing protein 7 (from UniProt Q96NW7 1-1575)” as the substance, how does the binding read?
**A.** Its binding is “binds”.

**Q.** Which binding does the source give for “Rap guanine nucleotide exchange factor 6 (from UniProt Q8TEU7-4 1-1609)” here?
**A.** The binding was “binds”.

Results are given in words; binding and its absence hold for the method and conditions named. Binding seen in cells or lysates may run through a third protein. A yes stands for co-enrichment or nearness to the bait. Other partners may have been found.
